In the test the target is Flag‐tagged CCT6A (UniProt P40227). The test can be described thus: affinity purification with mass spectrometry; IP of Flag-tagged CCT6A in HEK293T cells, silver staining, LC-MS/MS; compared with a negative control.

Protein sequences, listed by entry. Tags and fused reporters are not part of them.
UniProt P40227: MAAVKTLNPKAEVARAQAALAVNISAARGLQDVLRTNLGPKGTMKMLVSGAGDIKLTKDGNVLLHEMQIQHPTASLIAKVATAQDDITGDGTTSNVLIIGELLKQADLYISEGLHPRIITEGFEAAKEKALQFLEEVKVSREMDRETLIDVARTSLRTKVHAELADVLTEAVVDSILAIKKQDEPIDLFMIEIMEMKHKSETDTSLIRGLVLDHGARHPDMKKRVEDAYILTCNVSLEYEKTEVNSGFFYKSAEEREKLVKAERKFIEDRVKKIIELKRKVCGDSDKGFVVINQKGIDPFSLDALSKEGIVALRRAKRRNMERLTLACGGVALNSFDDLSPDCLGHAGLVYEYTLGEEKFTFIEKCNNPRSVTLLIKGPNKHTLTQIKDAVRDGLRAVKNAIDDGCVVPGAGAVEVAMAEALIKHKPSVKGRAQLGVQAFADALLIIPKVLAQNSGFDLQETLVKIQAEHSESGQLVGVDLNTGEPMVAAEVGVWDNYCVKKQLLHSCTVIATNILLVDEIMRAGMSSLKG
UniProt P35222: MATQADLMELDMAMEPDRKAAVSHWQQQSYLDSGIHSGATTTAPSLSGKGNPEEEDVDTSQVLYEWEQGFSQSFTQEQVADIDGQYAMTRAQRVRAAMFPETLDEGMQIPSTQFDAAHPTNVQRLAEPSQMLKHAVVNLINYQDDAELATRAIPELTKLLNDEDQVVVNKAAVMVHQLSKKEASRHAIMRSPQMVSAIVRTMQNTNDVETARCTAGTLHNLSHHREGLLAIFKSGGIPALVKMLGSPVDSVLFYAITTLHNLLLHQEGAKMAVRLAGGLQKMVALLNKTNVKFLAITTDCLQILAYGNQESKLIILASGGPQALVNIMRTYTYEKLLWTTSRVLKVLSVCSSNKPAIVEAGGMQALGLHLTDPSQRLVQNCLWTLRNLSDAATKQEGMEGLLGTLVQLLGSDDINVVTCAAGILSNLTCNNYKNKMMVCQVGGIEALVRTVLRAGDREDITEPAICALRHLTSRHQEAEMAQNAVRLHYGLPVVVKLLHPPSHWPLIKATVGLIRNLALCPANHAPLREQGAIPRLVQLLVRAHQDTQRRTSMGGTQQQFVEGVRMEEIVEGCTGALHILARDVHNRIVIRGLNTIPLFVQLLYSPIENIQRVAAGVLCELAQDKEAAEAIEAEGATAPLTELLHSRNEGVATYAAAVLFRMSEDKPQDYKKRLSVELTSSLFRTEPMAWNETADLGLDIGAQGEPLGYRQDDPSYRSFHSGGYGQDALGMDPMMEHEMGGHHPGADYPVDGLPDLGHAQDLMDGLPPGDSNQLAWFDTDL

These are yes or no findings as the source states them, for the method shown. In cells and extracts the contact can be indirect. These calls come from enrichment with a bait or labelling near it, and not all partners need be listed.

Turning to β‐catenin (from UniProt P35222 1-781), the binding entry was “binds”.

Values taken from publication PMC12520511.
